Experimental data from patent US20240285600A1, “NOVEL MKRN1 INHIBITOR AND PHARMACEUTICAL COMPOSITION FOR PREVENTING OR TREATING OBESITY OR FATTY LIVER COMPRISING THE SAME” (UIF (University Industry Foundation), Yosei University, priority 2023, published 2024).

Protein sequences, listed by entry. Tags and fused reporters are not part of them. Residues count along the entry.
UniProt Q9UHC7, 264-482: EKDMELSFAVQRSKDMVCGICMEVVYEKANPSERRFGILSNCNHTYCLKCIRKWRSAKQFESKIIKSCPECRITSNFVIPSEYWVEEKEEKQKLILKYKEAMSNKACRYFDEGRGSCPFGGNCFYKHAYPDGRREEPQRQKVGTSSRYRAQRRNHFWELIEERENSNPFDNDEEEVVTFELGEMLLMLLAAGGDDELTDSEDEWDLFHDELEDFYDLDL
UniProt Q9UHC7, whole entry H307E: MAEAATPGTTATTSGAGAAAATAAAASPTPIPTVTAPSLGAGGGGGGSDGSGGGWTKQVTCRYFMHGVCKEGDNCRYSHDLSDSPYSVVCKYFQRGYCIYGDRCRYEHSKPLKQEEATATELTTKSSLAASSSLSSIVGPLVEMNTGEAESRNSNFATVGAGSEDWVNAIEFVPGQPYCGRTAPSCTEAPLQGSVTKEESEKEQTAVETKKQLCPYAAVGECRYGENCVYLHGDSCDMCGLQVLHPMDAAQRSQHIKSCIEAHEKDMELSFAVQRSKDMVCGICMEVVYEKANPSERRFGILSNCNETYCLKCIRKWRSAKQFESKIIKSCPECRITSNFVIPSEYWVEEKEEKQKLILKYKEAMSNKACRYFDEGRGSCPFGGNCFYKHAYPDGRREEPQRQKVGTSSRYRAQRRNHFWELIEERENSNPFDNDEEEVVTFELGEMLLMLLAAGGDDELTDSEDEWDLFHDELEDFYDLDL

Experiments:
MKRN1 [1] = target: T1, MKRN1 (Homo sapiens, UniProt Q9UHC7); settings: 293T cells overexpressing MKRN1 WT with ubiquitin, FIG. 12A
[2] = target: recombinant MKRN1 (264-482) protein (Homo sapiens, UniProt Q9UHC7); settings: purified recombinant protein, FIG. 12B
MKRN1 [3] = target: T1, MKRN1; settings: HepG2 cells
MKRN1 [4] = target: T1, MKRN1; settings: FIG. 11
MKRN1 [5] = target: MKRN1 (Homo sapiens, UniProt Q9UHC7, H307E); settings: 293T cells overexpressing MKRN1 E3 ligase-deficient mutant (H307E), FIG. 11

For `CC(C)(C)c1ccc(C(=O)CCCN2CCC(OC(c3ccccc3)c3ccccc3)CC2)cc1` [ebastine], the “ubiquitination of MKRN1” value (MKRN1 [1]) was “induced the ubiquitination of MKRN1”, the “ubiquitination of MKRN1 (264-482)” value [2] was “increased” and the “amount of MKRN1 protein” value (MKRN1 [3]; cultured for 16 or 24 hours, FIG. 9) was “decreased”. The “amount of MKRN1 protein with proteasome inhibitor MG132” value (MKRN1 [3]; ebastine together with MG132, FIG. 10) was “decrease in MKRN1 protein was suppressed by MG132 treatment”, the “amount of MKRN1 protein, MKRN1 264-482” value (MKRN1 [4]; 293T cells overexpressing MKRN1 264-482 (contains RING finger)) was “decreased” and the “amount of MKRN1 protein, MKRN1 WT” value (MKRN1 [4]; 293T cells overexpressing MKRN1 WT) was “decreased”. The “amount of MKRN1 protein, H307E mutant” value (MKRN1 [5]) was “did not reduce the amount of MKRN1 protein”.
